Measurements as given in the supplement of paper PMC10849652.
This is one part of the list.

By UniProt entry, the sequences of proteins in these tests, tags left out. Where a name states a change or a piece, a line headed by the entry shows the natural chain unless it says otherwise.
UniProt P15529: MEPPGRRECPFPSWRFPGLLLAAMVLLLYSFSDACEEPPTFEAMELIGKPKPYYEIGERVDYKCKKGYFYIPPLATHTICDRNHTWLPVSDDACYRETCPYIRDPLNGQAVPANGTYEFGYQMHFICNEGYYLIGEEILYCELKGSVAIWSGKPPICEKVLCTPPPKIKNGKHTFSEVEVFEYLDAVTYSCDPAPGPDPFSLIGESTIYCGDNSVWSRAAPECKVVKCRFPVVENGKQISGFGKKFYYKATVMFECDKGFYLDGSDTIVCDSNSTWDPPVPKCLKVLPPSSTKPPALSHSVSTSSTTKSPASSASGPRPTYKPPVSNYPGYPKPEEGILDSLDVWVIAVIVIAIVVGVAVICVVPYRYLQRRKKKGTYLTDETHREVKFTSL
UniProt O14618: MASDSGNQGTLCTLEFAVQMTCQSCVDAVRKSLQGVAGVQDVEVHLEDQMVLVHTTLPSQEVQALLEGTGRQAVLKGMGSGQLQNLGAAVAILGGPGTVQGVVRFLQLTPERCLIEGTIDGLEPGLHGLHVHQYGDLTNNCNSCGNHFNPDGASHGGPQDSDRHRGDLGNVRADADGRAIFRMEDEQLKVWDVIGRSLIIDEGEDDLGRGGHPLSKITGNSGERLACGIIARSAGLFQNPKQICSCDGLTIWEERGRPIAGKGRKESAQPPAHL
UniProt Q13185: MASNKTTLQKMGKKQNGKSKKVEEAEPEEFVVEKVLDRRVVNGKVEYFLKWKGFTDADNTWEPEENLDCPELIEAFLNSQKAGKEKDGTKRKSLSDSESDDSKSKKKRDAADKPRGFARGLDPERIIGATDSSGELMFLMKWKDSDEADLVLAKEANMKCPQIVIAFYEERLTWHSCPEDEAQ
UniProt P49589: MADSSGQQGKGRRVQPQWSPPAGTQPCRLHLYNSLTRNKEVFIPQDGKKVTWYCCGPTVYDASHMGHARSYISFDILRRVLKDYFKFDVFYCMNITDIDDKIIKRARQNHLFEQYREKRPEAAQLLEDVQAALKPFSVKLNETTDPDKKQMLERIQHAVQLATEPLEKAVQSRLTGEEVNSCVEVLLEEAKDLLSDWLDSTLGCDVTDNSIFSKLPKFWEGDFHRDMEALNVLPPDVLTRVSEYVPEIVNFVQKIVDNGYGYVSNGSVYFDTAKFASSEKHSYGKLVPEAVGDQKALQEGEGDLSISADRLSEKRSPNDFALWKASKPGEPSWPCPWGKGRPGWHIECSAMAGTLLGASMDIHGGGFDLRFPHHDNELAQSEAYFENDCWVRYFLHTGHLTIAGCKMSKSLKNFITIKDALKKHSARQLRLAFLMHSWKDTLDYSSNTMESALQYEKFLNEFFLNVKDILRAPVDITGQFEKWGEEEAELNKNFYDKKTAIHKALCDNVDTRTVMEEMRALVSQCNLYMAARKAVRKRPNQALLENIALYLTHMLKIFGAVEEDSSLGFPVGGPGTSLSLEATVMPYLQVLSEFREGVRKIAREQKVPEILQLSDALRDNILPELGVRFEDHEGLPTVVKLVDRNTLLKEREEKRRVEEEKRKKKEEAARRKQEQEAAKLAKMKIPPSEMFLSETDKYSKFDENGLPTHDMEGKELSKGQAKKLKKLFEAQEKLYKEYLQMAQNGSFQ
UniProt Q13951, whole entry, looked up: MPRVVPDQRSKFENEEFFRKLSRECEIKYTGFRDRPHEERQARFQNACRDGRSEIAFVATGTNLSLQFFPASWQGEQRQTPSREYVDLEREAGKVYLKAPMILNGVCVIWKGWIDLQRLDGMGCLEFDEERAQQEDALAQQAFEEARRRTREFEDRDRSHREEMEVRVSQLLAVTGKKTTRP
UniProt P78371: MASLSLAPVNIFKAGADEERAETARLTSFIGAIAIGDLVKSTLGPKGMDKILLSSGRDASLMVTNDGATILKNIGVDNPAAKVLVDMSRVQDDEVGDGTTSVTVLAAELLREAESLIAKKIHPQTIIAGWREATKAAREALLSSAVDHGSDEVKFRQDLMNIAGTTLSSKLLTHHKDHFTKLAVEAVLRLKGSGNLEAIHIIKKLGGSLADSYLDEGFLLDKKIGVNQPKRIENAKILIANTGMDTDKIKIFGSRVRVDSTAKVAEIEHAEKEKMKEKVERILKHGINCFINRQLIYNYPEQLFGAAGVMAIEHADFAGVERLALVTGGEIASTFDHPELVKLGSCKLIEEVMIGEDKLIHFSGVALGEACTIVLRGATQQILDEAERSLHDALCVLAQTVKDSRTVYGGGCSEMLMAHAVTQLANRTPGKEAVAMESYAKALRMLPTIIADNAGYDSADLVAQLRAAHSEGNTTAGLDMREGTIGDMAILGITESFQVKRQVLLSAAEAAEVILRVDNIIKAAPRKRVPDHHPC
UniProt P19256, whole entry, looked up: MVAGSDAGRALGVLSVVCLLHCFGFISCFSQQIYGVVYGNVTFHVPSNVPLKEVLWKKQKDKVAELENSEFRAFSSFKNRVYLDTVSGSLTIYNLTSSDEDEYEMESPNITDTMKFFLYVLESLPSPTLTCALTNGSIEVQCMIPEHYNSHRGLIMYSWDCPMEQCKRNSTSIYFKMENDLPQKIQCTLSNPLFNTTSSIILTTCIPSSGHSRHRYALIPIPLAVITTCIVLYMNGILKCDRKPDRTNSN
UniProt Q96A33: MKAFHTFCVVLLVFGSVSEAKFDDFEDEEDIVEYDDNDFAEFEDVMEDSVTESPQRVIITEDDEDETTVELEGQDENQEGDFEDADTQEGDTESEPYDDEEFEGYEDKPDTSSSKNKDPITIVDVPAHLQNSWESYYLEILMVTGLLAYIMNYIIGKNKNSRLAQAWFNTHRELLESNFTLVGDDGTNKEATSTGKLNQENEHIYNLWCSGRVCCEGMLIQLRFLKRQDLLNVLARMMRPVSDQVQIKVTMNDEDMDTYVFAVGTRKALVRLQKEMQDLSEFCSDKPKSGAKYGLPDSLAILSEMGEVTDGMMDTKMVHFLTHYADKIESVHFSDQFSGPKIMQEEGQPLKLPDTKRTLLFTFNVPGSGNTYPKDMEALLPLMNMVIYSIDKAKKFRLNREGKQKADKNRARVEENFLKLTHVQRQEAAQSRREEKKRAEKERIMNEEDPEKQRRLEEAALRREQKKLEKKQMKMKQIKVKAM
UniProt Q9BRT8: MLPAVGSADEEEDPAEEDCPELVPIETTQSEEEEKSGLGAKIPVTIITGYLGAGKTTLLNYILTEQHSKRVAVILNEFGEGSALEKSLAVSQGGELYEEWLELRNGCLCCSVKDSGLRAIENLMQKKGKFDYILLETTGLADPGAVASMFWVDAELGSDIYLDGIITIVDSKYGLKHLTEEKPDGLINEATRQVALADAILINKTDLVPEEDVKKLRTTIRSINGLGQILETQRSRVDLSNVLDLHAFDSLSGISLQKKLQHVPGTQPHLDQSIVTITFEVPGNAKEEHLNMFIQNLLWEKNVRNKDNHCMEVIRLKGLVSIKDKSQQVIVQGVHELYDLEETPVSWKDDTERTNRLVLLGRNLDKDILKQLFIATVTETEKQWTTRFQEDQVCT
UniProt P50991: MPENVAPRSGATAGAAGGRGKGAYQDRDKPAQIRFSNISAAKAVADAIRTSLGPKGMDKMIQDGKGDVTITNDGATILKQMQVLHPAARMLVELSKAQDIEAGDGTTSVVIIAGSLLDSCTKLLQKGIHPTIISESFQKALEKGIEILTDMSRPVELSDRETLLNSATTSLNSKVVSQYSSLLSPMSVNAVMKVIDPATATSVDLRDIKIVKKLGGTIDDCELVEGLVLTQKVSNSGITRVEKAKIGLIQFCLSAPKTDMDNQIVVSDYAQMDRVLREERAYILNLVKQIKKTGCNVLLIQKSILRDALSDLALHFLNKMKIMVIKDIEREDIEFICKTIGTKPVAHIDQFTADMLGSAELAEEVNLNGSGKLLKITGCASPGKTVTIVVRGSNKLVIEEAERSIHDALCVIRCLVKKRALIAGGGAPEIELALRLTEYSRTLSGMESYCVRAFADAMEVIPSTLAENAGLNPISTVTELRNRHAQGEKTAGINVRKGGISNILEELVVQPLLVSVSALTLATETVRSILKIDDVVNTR
UniProt O60826, whole entry, looked up: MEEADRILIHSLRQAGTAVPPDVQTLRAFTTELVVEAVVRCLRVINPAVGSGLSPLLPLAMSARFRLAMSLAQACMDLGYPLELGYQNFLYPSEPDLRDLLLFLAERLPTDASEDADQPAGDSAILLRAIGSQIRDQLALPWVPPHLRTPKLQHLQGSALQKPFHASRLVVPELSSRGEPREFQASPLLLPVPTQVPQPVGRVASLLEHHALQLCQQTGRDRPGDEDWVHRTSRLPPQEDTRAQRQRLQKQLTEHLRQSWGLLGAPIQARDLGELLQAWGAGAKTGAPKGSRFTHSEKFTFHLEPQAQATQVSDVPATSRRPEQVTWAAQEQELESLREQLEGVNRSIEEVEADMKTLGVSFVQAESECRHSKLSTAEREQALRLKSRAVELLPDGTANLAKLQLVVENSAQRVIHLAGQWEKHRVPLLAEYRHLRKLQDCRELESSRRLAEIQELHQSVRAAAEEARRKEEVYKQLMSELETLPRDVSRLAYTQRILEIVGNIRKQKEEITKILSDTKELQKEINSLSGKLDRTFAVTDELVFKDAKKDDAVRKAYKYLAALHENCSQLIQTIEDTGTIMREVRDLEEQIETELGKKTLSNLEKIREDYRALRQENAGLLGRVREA
UniProt Q13191, whole entry, looked up: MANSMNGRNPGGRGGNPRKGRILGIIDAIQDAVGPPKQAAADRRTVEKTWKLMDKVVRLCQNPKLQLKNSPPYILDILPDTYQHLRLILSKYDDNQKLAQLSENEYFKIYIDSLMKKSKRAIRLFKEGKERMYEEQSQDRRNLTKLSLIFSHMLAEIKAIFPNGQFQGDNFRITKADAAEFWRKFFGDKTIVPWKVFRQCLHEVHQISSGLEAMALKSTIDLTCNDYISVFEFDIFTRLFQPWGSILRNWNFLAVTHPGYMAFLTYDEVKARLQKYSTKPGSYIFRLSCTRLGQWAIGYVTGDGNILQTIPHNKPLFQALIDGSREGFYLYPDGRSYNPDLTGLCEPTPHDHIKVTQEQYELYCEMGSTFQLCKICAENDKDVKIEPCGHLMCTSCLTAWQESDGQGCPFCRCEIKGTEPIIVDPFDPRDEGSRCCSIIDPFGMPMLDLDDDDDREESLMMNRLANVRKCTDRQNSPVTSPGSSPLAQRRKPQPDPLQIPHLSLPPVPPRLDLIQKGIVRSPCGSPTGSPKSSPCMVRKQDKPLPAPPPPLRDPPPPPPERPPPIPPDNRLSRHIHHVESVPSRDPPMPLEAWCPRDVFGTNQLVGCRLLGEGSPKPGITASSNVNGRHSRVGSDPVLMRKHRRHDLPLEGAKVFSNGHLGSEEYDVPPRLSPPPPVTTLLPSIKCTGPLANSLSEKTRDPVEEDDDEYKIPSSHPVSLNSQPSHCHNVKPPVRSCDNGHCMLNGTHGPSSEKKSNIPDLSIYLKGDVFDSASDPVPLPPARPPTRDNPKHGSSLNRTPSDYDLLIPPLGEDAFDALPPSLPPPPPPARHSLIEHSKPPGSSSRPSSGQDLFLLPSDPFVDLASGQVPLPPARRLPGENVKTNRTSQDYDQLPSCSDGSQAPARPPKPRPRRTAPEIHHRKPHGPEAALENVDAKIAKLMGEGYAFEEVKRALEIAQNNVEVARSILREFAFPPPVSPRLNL
UniProt P20810: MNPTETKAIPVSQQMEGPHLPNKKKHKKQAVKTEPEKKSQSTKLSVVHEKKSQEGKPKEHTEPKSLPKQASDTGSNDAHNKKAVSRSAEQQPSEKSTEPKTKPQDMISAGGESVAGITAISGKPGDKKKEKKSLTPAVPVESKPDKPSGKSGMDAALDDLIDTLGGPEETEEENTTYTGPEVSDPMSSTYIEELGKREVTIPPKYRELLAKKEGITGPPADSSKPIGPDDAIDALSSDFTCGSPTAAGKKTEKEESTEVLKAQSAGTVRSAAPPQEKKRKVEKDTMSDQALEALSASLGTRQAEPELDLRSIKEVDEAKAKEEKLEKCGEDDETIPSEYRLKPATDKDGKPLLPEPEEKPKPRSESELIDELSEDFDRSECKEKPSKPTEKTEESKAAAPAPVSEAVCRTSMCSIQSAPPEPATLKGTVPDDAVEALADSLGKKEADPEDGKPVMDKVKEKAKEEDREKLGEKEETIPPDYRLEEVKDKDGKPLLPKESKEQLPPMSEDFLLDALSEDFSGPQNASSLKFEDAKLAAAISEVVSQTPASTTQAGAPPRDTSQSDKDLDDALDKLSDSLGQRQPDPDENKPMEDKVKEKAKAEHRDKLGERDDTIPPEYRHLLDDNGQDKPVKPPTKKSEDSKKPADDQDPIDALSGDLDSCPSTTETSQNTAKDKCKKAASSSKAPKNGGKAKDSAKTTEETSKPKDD
UniProt Q9GZT6: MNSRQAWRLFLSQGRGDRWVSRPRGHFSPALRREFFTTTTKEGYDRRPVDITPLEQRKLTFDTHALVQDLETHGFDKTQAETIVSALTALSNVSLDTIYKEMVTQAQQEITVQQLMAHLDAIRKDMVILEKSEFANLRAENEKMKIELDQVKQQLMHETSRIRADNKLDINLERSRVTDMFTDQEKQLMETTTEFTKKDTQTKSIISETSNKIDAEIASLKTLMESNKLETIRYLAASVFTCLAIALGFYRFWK

Assays:
Assay in all cases: log2 fold change, soluble protein after heating vs DMSO (PISA); higher = thermal stabilisation; K562 cells, 10 uM, 30 min; active = over 0.2 and 3.5 SD of the protein, either way, in both replicates (recomputed)
[1] = compound: CC[C@@H]1C(=O)N(C)c2cnc(Nc3ccc(C(=O)NC4CCN(C)CC4)cc3OC)nc2N1C1CCCC1
Method in brief: (§1)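 Aliquots of K562 cells (2×10^6 cells/mL) treated with 10 μM compound for 30 min were heated for 3 min over 48°C-58°C. After pooling and extraction in PBS with 0.5% NP-40 at 4°C, soluble protein from a 21,000xg, 90 min spin was quantified by TMTpro 16plex LC-MS/MS with channel sums equalised. Thermal stability is expressed against control samples, from duplicates, as a log2 fold change.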

volasertib = compound: CC[C@@H]1C(=O)N(C)c2cnc(Nc3ccc(C(=O)N[C@H]4CC[C@H](N5CCN(CC6CC6)CC5)CC4)cc3OC)nc2N1C(C)C [volasertib]
Method in brief: as §1

[2] = compound: CC[C@H](C)N1C=C(C2=C(C=C(C=C21)C3=CN=C(C=C3)N4CCNCC4)C(=O)NCC5=C(C=C(NC5=O)C)C)C
Method in brief: as §1

epoxomicin = compound: CC[C@H](C)[C@@H](C(=O)N[C@@H]([C@@H](C)O)C(=O)N[C@@H](CC(C)C)C(=O)[C@]1(CO1)C)NC(=O)[C@H]([C@@H](C)CC)N(C)C(=O)C [epoxomicin]
Method in brief: as §1

[3] = compound: CCn1c(C(=O)N(C2CC2)C2CC2)cc2c3c(ncn3C)c(Nc3cc(C)n(C)n3)nc21
Method in brief: as §1

[4] = compound: CCn1cc(-c2ccnc3[nH]c(-c4cccc(CN(C)C)c4)cc23)c(-c2ccc(NC(=O)N(C)C)cc2)n1
Method in brief: as §1

[5] = compound: CN(C)CC(=O)Nc1ccc2[nH]c(=O)c3ccccc3c2c1
Method in brief: as §1

rosiglitazone = compound: CN(CCOC1=CC=C(C=C1)C[C@H]2C(=O)NC(=O)S2)C3=CC=CC=N3 (racemic) [rosiglitazone]
Method in brief: as §1

[6] = compound: CN1C2=C(C3=C1C(=O)N(N=C3)CC4=CC(=CC=C4)N)SC(=C2)S(=O)C
Method in brief: as §1

[7] = compound: CN1CCC(CNc2ccc3ncc(-c4cccc(OC(F)(F)F)c4)n3n2)CC1
Method in brief: as §1

saracatinib = compound: CN1CCN(CCOc2cc(OC3CCOCC3)c3c(Nc4c(Cl)ccc5c4OCO5)ncnc3c2)CC1 [saracatinib]
Method in brief: as §1

sotrastaurin = compound: CN1CCN(c2nc(C3=C(c4c[nH]c5ccccc45)C(=O)NC3=O)c3ccccc3n2)CC1 [sotrastaurin]
Method in brief: as §1

alvocidib = compound: CN1CC[C@H](c2c(O)cc(O)c3c(=O)cc(-c4ccccc4Cl)oc23)[C@H](O)C1 [alvocidib]
Method in brief: as §1

Tubastatin A = compound: CN1CCc2c(c3ccccc3n2Cc2ccc(C(=O)NO)cc2)C1 [Tubastatin A]
Method in brief: as §1

[8] = compound: CNC(=O)C1=CC=CC=C1NC2=NC(=NC=C2Cl)NC3=C(C=C(C=C3)N4CCOCC4)OC
Method in brief: as §1

defactinib = compound: CNC(=O)c1ccc(Nc2ncc(C(F)(F)F)c(NCc3nccnc3N(C)S(C)(=O)=O)n2)cc1 [defactinib]
Method in brief: as §1

rucaparib = compound: CNCc1ccc(-c2[nH]c3cc(F)cc4c3c2CCNC4=O)cc1 [rucaparib]
Method in brief: as §1

[9] = compound: CNc1nc(-c2ccc3c(N)n[nH]c3c2)cc(N2C[C@@H](C(=O)NC3CCCCC3)CC[C@H]2C)n1
Method in brief: as §1

encorafenib = compound: COC(=O)N[C@@H](C)CNc1nccc(-c2cn(C(C)C)nc2-c2cc(Cl)cc(NS(C)(=O)=O)c2F)n1 [encorafenib]
Method in brief: as §1

[10] = compound: COC(=O)[C@H](CCSC)NC(=O)C1=C(C=C(C=C1)NC[C@H](CS)N)C2=CC=CC=C2
Method in brief: as §1

Measured: log2 fold change

CD46 isoform 2 (UniProt P15529)
inactive: [1] 0.059 | volasertib 0.006 | [2] -0.07 | epoxomicin -0.013 | [3] 0.017 | [4] -0.086 | [5] -0.069 | rosiglitazone -0.012 | [6] -0.189 | [7] 0.102 | saracatinib -0.053 | sotrastaurin 0.052 | alvocidib -0.016 | Tubastatin A -0.024 | [8] -0.045 | defactinib -0.077 | rucaparib -0.052 | [9] 0.013 | encorafenib 0.015 | [10] 0.029

CCS (UniProt O14618)
inactive: [1] 0.001 | volasertib 0.007 | [2] 0.05 | epoxomicin 0.017 | [3] -0.007 | [4] -0.005 | [5] -0.025 | rosiglitazone 0.006 | [6] -0.081 | [7] -0.091 | saracatinib 0 | sotrastaurin 0.101 | alvocidib -0.052 | Tubastatin A -0.057 | [8] -0.015 | defactinib -0.018 | rucaparib -0.014 | [9] 0.01 | encorafenib -0.005 | [10] 0.039

CBX3 (UniProt Q13185)
inactive: [1] -0.104 | volasertib -0.169 | [2] 0.105 | epoxomicin 0.222 | [3] 0.053 | [4] 0.049 | [5] 0.007 | rosiglitazone 0.014 | [6] -0.018 | [7] -0.126 | saracatinib -0.017 | sotrastaurin 0.087 | alvocidib -0.074 | Tubastatin A -0.031 | [8] 0.084 | defactinib -0.11 | rucaparib -0.125 | [9] -0.023 | encorafenib 0.093 | [10] -0.001

CARS isoform 3 (UniProt P49589)
inactive: [1] -0.012 | volasertib -0.001 | [2] 0.009 | epoxomicin -0.001 | [3] 0.01 | [4] -0.012 | [5] -0.017 | rosiglitazone 0.014 | [6] -0.054 | [7] -0.048 | saracatinib -0.023 | sotrastaurin 0.039 | alvocidib -0.009 | Tubastatin A -0.027 | [8] -0.017 | defactinib -0.018 | rucaparib -0.06 | [9] 0 | encorafenib 0.004 | [10] 0.01

CBFB isoform 2 (UniProt Q13951)
inactive: [1] -0.183 | volasertib -0.23 | [2] 0.036 | epoxomicin 0.165 | [3] 0.016 | [4] -0.077 | [5] 0.037 | rosiglitazone 0.049 | [6] -0.082 | [7] -0.001 | saracatinib 0.003 | sotrastaurin -0.112 | alvocidib -0.073 | Tubastatin A -0.007 | [8] 0.041 | defactinib -0.064 | rucaparib 0.051 | [9] -0.066 | encorafenib -0.043 | [10] -0.014

Reprinted at random: 2 entries already listed.
CARS isoform 3 (UniProt P49589)
inactive: [1] -0.012 | volasertib -0.001 | [2] 0.009 | epoxomicin -0.001 | [3] 0.01 | [4] -0.012 | [5] -0.017 | rosiglitazone 0.014 | [6] -0.054 | [7] -0.048 | saracatinib -0.023 | sotrastaurin 0.039 | alvocidib -0.009 | Tubastatin A -0.027 | [8] -0.017 | defactinib -0.018 | rucaparib -0.06 | [9] 0 | encorafenib 0.004 | [10] 0.01

CD46 isoform 2 (UniProt P15529)
inactive: [1] 0.059 | volasertib 0.006 | [2] -0.07 | epoxomicin -0.013 | [3] 0.017 | [4] -0.086 | [5] -0.069 | rosiglitazone -0.012 | [6] -0.189 | [7] 0.102 | saracatinib -0.053 | sotrastaurin 0.052 | alvocidib -0.016 | Tubastatin A -0.024 | [8] -0.045 | defactinib -0.077 | rucaparib -0.052 | [9] 0.013 | encorafenib 0.015 | [10] 0.029

(next part)

CCT2 (UniProt P78371)
inactive: [1] -0.006 | volasertib 0.011 | [2] 0.001 | epoxomicin 0.019 | [3] 0.013 | [4] 0.031 | [5] 0.123 | rosiglitazone 0.007 | [6] -0.036 | [7] -0.024 | saracatinib -0.004 | sotrastaurin -0.003 | alvocidib 0.01 | Tubastatin A -0.001 | [8] -0.037 | defactinib 0.009 | rucaparib -0.037 | [9] 0.013 | encorafenib 0.02 | [10] -0.014

CD58 (UniProt P19256)
inactive: [1] 0.096 | volasertib 0.044 | [2] -0.026 | epoxomicin -0.045 | [3] 0.07 | [4] 0.013 | [5] -0.002 | rosiglitazone 0.004 | [6] -0.011 | [7] 0.021 | saracatinib 0.01 | sotrastaurin 0.067 | alvocidib -0.012 | Tubastatin A -0.117 | [8] -0.033 | defactinib 0.011 | rucaparib 0.012 | [9] 0.023 | encorafenib -0.006 | [10] 0.023

CCDC47 (UniProt Q96A33)
inactive: [1] -0.076 | volasertib -0.082 | [2] 0.009 | epoxomicin 0.022 | [3] -0.004 | [4] -0.014 | [5] 0.019 | rosiglitazone 0.024 | [6] -0.063 | [7] -0.202 | saracatinib -0.017 | sotrastaurin 0.014 | alvocidib -0.009 | Tubastatin A 0.019 | [8] 0.004 | defactinib -0.045 | rucaparib -0.03 | [9] -0.022 | encorafenib -0.012 | [10] -0.007

CBWD1 (UniProt Q9BRT8)
inactive: [1] 0.089 | volasertib -0.185 | [2] -0.04 | epoxomicin -0.035 | [3] -0.047 | [4] 0.122 | [5] -0.068 | rosiglitazone 0.122 | [6] 0.082 | [7] -0.175 | saracatinib -0.125 | sotrastaurin -0.092 | alvocidib 0.011 | Tubastatin A 0.113 | [8] -0.054 | defactinib 0.126 | rucaparib 0.144 | [9] 0.107 | encorafenib 0.031 | [10] -0.18

CCT4 (UniProt P50991)
inactive: [1] -0.004 | volasertib 0.004 | [2] -0.006 | epoxomicin 0.001 | [3] -0.021 | [4] 0.017 | [5] 0.01 | rosiglitazone 0.005 | [6] -0.03 | [7] -0.001 | saracatinib 0.009 | sotrastaurin -0.026 | alvocidib 0.015 | Tubastatin A -0.025 | [8] -0.033 | defactinib 0 | rucaparib -0.053 | [9] 0.009 | encorafenib 0.042 | [10] -0.002

CCDC22 (UniProt O60826)
inactive: [1] 0.055 | volasertib -0.141 | [2] -0.039 | epoxomicin 0.009 | [3] -0.001 | [4] 0.014 | [5] 0.027 | rosiglitazone 0.024 | [6] 0.039 | [7] -0.127 | saracatinib -0.096 | sotrastaurin -0.102 | alvocidib -0.025 | Tubastatin A 0.043 | [8] 0.013 | defactinib 0.02 | rucaparib 0.09 | [9] 0.019 | encorafenib -0.002 | [10] 0.02

CBLB (UniProt Q13191)
inactive: [1] 0.012 | volasertib -0.033 | [2] 0.026 | epoxomicin -0.149 | [3] -0.109 | [4] -0.053 | [5] 0.065 | rosiglitazone -0.135 | [6] -0.032 | [7] -0.003 | saracatinib -0.023 | sotrastaurin -0.099 | alvocidib -0.052 | Tubastatin A -0.018 | [8] 0.046 | defactinib 0.086 | rucaparib -0.007 | [9] -0.161 | encorafenib 0.004 | [10] -0.061

CAST isoform 6 (UniProt P20810)
inactive: [1] 0.015 | volasertib 0.07 | [2] -0.048 | epoxomicin -0.003 | [3] -0.006 | [4] -0.011 | [5] -0.008 | rosiglitazone -0.008 | [6] -0.023 | [7] -0.062 | saracatinib 0 | sotrastaurin 0.069 | alvocidib 0.031 | Tubastatin A -0.006 | [8] -0.039 | defactinib -0.011 | rucaparib 0.02 | [9] -0.054 | encorafenib -0.037 | [10] 0.032

CCDC90B (UniProt Q9GZT6)
inactive: [1] 0.007 | volasertib -0.007 | [2] -0.015 | epoxomicin 0.039 | [3] -0.008 | [4] -0.008 | [5] -0.047 | rosiglitazone 0.06 | [6] 0.013 | [7] 0.094 | saracatinib 0 | sotrastaurin 0.137 | alvocidib 0.025 | Tubastatin A 0.009 | [8] 0.012 | defactinib 0.013 | rucaparib -0.022 | [9] -0.016 | encorafenib -0.033 | [10] -0.013

CCDC86 (UniProt Q9H6F5)
inactive: [1] 0.105 | volasertib 0.317 | [2] -0.074 | epoxomicin -0.237 | [3] -0.034 | [4] 0.294 | [5] -0.064 | rosiglitazone -0.164 | [6] 0.267 | [7] 0.401 | saracatinib -0.08 | sotrastaurin -0.109 | alvocidib 0.367 | Tubastatin A 0.078 | [8] 0.043 | defactinib 0.288 | rucaparib 0.162 | [9] 0.033 | encorafenib 0.107 | [10] -0.026

CCDC124 (UniProt Q96CT7)
inactive: [1] 0.047 | volasertib 0.093 | [2] -0.043 | epoxomicin -0.021 | [3] 0.024 | [4] 0.058 | [5] -0.063 | rosiglitazone -0.024 | [6] 0.003 | [7] 0.08 | saracatinib -0.014 | sotrastaurin 0.066 | alvocidib 0.067 | Tubastatin A 0.008 | [8] -0.017 | defactinib 0.042 | rucaparib 0.025 | [9] -0.017 | encorafenib -0.001 | [10] 0.018
